# From patent US12491198B2, “Doxycycline injection for sclerotherapy of lower eyelid festoons and malar edema” (LKF21, LLC, priority 2020, dated 2025)
# Read-outs that look alike come from different tables or passages of the source. For at least one compound, name, drawing or mass did not settle the structure.
# What was measured:
# [1] = tested on: skin contraction (festoons, malar edema); assay: Clinical studies / subsequent studies of skin contraction at 10, 15 and 20 mg/ml; type: in vivo, human
# [2] = tested on: edema of festoons and malar mounds; assay: Studies of doxycycline as sclerosing agent at lower concentrations and compared with tetracycline; type: in vivo
# [3] = tested on: lower eyelid festoons and malar edema; type: in vivo, human; details: 10 mg/mL intralesional injection, compared with pre-injection or with other treatments including tetracycline
# Protocol: An initial study of 15 consecutive patients with malar edema and/or festoons were injected with doxycycline hyclate at a concentration of 10 mg/mL. Pre- and post-injection photographs were reviewed and graded on a scale of 0 to 3 (0 no festoon, 1 small festoon, 2 medium festoon, 3 large festoon) by two blinded physician observers. […] Student t-test was used for statistical analysis.
# Institutional Review Board (IRB) approval was obtained. A retrospective chart review was performed on 15 consecutive patients injected with doxycycline hyclate at a concentration of 10 mg/mL directly into their malar edema and festoons. The primary outcome measure was improvement in the appearance of lower eyelid festoons or malar edema. Pre- and post-injection photographs were reviewed and graded on a scale of 0 to 3 (0 no festoon, 1 small festoon, 2 medium festoon, 3 large festoon) by two blinded physician observers. All pre- and post-treatment photographs were taken in a standardized position without the use of a flash device. Written consent was obtained for the use of photographs and is on file with the authors. Additional data collected included patient age, volume of injection, location of injection, number of injections, and subjective complaints. […] Student t-test was used for statistical analysis. […]
structure (smiles),measurement,setting,value
C[C@H]1c2cccc(O)c2C(=O)C2=C(O)[C@]3(O)C(=O)C(C(N)=O)=C(O)[C@@H](N(C)C)[C@@H]3[C@@H](O)[C@@H]21 [doxycycline hyclate],skin contraction at 10 mg/ml,[1]; doxycycline 10 mg/ml,not adequate to contract skin
same,skin contraction at 15-20 mg/ml,[1]; doxycycline 15 and 20 mg/ml,cause skin to contract
same,efficacy at 1 mg/ml and 5 mg/ml,[2]; 1 mg/ml and 5 mg/ml versus 10-20 mg/ml,did not show as much efficacy
same,benefit as sclerosing agent compared with other agents such as tetracycline,[2]; concentration range 10-20 mg/ml,statistically greater benefit
same,improvement in appearance of lower eyelid festoons and malar edema (in words),[3],statistically more effective treatment option
same,improvement in appearance of lower eyelid festoons and malar edema (in words),[3]; listed as doxycycline,statistically significant improvement
